Laboratory results: paper PMC12568185
These are yes or no findings as the source states them, for the method shown. In cells and extracts the contact can be indirect. Some binding calls cover weakened binding; strength is not graded here. Where a sequence is shown, tags or fusion partners need not be part of it.

By UniProt entry, the sequences of proteins in these tests, tags left out.
UniProt P03430: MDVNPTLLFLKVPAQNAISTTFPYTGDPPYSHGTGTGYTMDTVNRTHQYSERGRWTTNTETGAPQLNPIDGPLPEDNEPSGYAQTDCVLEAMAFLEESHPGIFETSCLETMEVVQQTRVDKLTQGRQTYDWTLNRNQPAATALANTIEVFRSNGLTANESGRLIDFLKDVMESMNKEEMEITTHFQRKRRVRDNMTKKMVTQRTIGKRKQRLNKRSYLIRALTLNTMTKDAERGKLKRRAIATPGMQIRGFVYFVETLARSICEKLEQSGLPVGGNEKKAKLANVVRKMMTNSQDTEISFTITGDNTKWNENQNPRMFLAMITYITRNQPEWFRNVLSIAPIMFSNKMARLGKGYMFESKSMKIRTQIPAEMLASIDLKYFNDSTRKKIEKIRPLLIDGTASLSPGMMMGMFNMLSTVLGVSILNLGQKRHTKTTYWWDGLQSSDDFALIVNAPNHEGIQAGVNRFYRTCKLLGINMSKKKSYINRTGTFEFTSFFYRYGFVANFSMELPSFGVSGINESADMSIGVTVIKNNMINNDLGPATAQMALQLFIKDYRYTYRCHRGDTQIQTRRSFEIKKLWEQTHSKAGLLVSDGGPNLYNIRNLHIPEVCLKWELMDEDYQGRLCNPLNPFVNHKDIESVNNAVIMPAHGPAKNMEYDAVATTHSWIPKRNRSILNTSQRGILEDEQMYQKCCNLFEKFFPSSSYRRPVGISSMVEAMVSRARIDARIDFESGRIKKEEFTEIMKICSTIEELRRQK

Target: T1, FLAG–14-3-3η (UniProt Q04917)
T1 sequence: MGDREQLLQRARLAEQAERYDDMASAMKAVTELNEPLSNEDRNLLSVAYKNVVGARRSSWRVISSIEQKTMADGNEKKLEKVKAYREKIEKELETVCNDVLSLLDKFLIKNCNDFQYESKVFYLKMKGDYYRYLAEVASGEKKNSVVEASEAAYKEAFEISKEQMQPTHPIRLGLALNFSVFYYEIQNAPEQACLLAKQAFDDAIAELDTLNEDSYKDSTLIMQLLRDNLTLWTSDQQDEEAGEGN
Experiment: co-IP

PB1 protein of influenza A virus WSN/33 (H1N1), from infection (from UniProt P03430 1-757)
binding: binds
